PubChem BioAssay AID1671195, Yale University – 2021
Test: 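Regulators of LDL receptor activity judged by labelled LDL uptake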 (primary screen). System: human Huh7 hepatoma cells. Reagents: siRNA pool against human genes, 18 nM. Time to read-out: about 2 to 2.5 days of knockdown, then 8 h LDL uptake. Treatment: DiI-labelled LDL at 30 µg/ml for 8 h, in lipoprotein-deficient serum medium. Measured: 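Per-cell DiI-LDL intensity by automated imaging; well means scaled to the plate median and given as a robust z-score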. Scale: robust z-score: higher = more LDL uptake after knockdown. Hit rule: 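a gene counts as active if at least two replicate z-scores exceed ±2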.
The whole screen tested about 22,000 reagents; shown is a random part of them. About 1,510 of all reagents (6.9%) were called active. 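Active includes knockdowns raising or lowering LDL uptake; positive z-scores mean more uptake, negative mean less.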 Unmarked entries are inactive.

What is on record for MPO?
robust z-score, replicate 1: -0.342; robust z-score, replicate 2: 0.554; robust z-score, replicate 3: 0.0995

What did the screen give for ATF7?
robust z-score, replicate 1: 1.36; robust z-score, replicate 2: 1.31; robust z-score, replicate 3: 2.42

What is on record for PCNX3?
robust z-score, replicate 1: -1.23; robust z-score, replicate 2: -1.61; robust z-score, replicate 3: -1.52

With POU3F2, how do the results read?
robust z-score, replicate 1: -1.08; robust z-score, replicate 2: -0.953; robust z-score, replicate 3: -0.731

With BTBD19, how do the results read?
robust z-score, replicate 1: 1.05; robust z-score, replicate 2: -0.0597; robust z-score, replicate 3: -0.105

For ARFGEF2, what was measured?
robust z-score, replicate 1: -0.508; robust z-score, replicate 2: -0.337; robust z-score, replicate 3: -0.995

With ADAMTS12, what does the deposit list?
robust z-score, replicate 1: 0.541; robust z-score, replicate 2: 0.173; robust z-score, replicate 3: 1.31

For LOC401058 (retired record), how do the results read?
robust z-score, replicate 1: 0.0503; robust z-score, replicate 2: -0.176; robust z-score, replicate 3: -0.285

How did the screen score MIR99AHG?
robust z-score, replicate 1: 0.52; robust z-score, replicate 2: 1.21; robust z-score, replicate 3: 0.507

For GJA5, how do the results read?
robust z-score, replicate 1: 0.506; robust z-score, replicate 2: -0.553; robust z-score, replicate 3: -0.12

What did the screen give for KATNA1?
robust z-score, replicate 1: 1.15; robust z-score, replicate 2: 0.351; robust z-score, replicate 3: 0.953

How did the screen score ECT2L?
robust z-score, replicate 1: -0.437; robust z-score, replicate 2: -0.198; robust z-score, replicate 3: 0.347

Part of the list above, limited to “robust z-score, replicate 3”:
ADAMTS12 = 1.31
LOC401058 (retired record) = -0.285
